From patent US6147051A, “Methods and compositions for the prophylactic and/or therapeutic treatment of organ hypofunction” (Takeda Chemical Industries Ltd., priority 1993, dated 2000)
Entries after “also recorded” stand apart in the source; their conditions may differ. At least one peptide structure holds a part that was inferred or is arguable (an end, a ring closure or a residue). Square brackets hold non-standard residues; d marks the D form. Peptide text beside a SMILES is read from it. * marks the point of attachment. Piperazinyl(4-Ph) = c1ccc(N2CCN(*)CC2)cc1; dGly(2-thienyl) = N[C@@H](C(=O)O)c1cccs1

System: rat hepatic injury after ischemia-reperfusion
Experiment: rat hepatic injury model after ischemia-reperfusion: plasma GPT and GOT activities
Format: in vivo, Wister rats (male)
[1] = 3 mg/kg i.v., one hour after reperfusion, compared with control and pseudo-operation groups

Question: How did the “effect on increase in plasma GOT activity (in words)” value [1] turn out when `CC(C)C[C@@H]1NC(=O)[C@@H](c2cccs2)NC(=O)[C@H](CC(=O)O)NC(=O)[C@H](CC(=O)N2CCN(c3ccccc3)CC2)NC(=O)[C@@H](CC(=O)O)NC(=O)[C@@H](Cc2c[nH]c3ccccc23)NC1=O` [Compound (1), cyclo(-D-Asp-AspR1)-Asp-D-Thg(2)-Leu-D-Trp-)] (cyclo(D(Piperazinyl(4-Ph))D[dGly(2-thienyl)]L[dW][dD])) was run?
Answer: tendency to inhibit an increase in plasma GOT value

Question: And the “effect on increase in plasma GPT activity (in words)” value [1]?
Answer: nearly equal to that of the pseudo-operation group; also recorded: significant inhibiting action on an increase in plasma GPT value

Question: And the “GPT and GOT activities in the plasma before ischemia, difference among the three groups (in words)” value (before ischemia, Ryan's multiple test, significance level of 5%)?
Answer: no significant difference
